Results are given in words; binding and its absence hold for the method and conditions named. Some entries that bind do so weakly or less than the wild type.
What was measured:
[1] = target: transferrin receptor 1 (TfR1) (human) (UniProt P02786); assay: ELISA; complex in 25 mM Tris, 10% (w/v) sucrose, pH 7.5, after four weeks at room temperature
[2] = target: transferrin receptor 1 (TfR1) (human) (UniProt P02786); assay: ELISA; complex in alternative formulations a and b, stored at -80 C and at room temperature for one week

B1: anti-TfR1 Fab-siRNA complex of formula (Id) (anti-TfR1 antibody provided in Table 2 covalently linked to a DUX4-targeting siRNA) (Fab, V domains shown)
VH: QVQLQESGPGLVKPSQTLSLTCTVTGYSITSGYYWNWIRQPPGKGLEWIGYITFDGANNYNPSLKNRVSISRDTSKNQFSLKLSSVTAEDTATYYCTRSSYDYDVLDYWGQGTTVTVSS
VL: DIQMTQSPSSLSASVGDRVTITCRASQDISNFLNWYQQKPGQPVKLLIYYTSRLHSGVPSRFSGSGSGTDFTLTISSLQPEDFATYYCQQGHTLPYTFGQGTKLEIKR
[1]
  binding: binds
[2]
  binding: binds
